Earlier results on one molecule are cited in publication PMC10210398, “Genomic, functional and structural analyses elucidate evolutionary innovation within the sea anemone 8 toxin family” (BMC Biology, 2023).

The data set concerns the target hKV10.1. Conditions: read-out: Kd (positive control concentration equivalent to Kd); KV10.1; no reference given; cited from earlier work. How it is done: Voltage protocols: For measurement of hKV1.1–1.3 and hKV10.1, currents, voltage steps to + 50 mV, were applied from a holding potential of − 120 mV every 15 or 30 s and the peak current was measured. Channels were activated by a series of depolarisation pulses to + 50 mV from a holding potential of − 120 mV. For KV1.1, 50-ms-long activating stimuli were used every 15 s. Due to the highly variable activation kinetics of KV1.2 [145] 200-ms-long pulses were applied every 15 s to maximise the open probability of the channel.

For `COc1ccc(CCN2CCC(Nc3nc4ccccc4n3Cc3ccc(F)cc3)CC2)cc1` [Astemizole, astemizole, reference compound], the Kd is 2000 nM.
